Assay results taken from the supplement of paper PMC12578635.
The list shows a part of the results. Rule as the data show it: active = 150% or more and inactive = the rest. Many values rest on one well or one pass, so single values are uncertain.

test system: Staphylococcus aureus JE2-lux inside RAW 264.7 macrophages; assay: intracellular bacterial bioluminescence relative to DMSO vehicle; higher = higher intracellular bacterial metabolic activity; settings: 10 µM; treatment time 4 h; gentamicin 50 µg/ml

Intracellular bacterial bioluminescence, inactive:
COCCOC(=O)c1c(C)oc2ccc(OCC(=O)c3ccc(OC)cc3)cc12 95.5%
CCc1ccc2c(c1)C(O)(c1c(C)[nH]c3ccccc13)C(=O)N2 (stereo not drawn) 64.8%
COc1ccc2c(C)cc(SCC(=O)Nc3ccc4c(c3)OCO4)nc2c1 69.6%
Cc1ccc(CN(CC(=O)N2CCNCC2)C(=O)c2cccnc2)cc1C 76.4%
Cc1cc(C)n2cc(CSc3nc4cc([N+](=O)[O-])ccc4o3)nc2n1 75.4%
Cc1cc2oc(C(=O)N(C)Cc3nc4cc(Cl)ccc4[nH]3)cc(=O)c2cc1C 75.9%
COc1ccc(NC(=O)c2cc(-c3ccc4c(c3)OCCO4)on2)c(OC)c1 108%
COC(=O)c1sccc1S(=O)(=O)Nc1ccc(F)cc1Cl 84.7%
CCc1nc2onc(C)c2c(=O)n1CC(=O)OC 103%
COc1ccc(CCNc2nc(C)nc3sc4c(c23)CCCC4)cc1OC 79.7%
COc1ccc(S(=O)(=O)NC(=N)NCCc2c(C)[nH]c3ccc(F)cc23)cc1C 92.9%
Cc1sc(NC(=O)c2cccnc2)nc1-c1ccc2c(c1)CCN2C(=O)C(C)C 106%
O=C(Nc1ccc2c(c1)CCC2)C1CCCN(C(=O)Nc2ccc(F)cc2)C1 (stereo not drawn) 92.5%
COc1cc(CNC(=O)CCn2c(-c3ccccn3)cc3cccnc32)cc(OC)c1 105%
CN(C)C(CNS(=O)(=O)c1ccc2c(c1)NC(=O)CO2)c1ccc2c(c1)OCO2 (stereo not drawn) 87.9%
COC(=O)c1ccc(CSc2nc3sc(C(=O)O)c(C)c3c(=O)[nH]2)cc1 113%
Fc1cccc2sc(Nc3nc(-c4nc5ccccc5s4)cs3)nc12 108%
O=C(Cn1ncn2nc3c(c2c1=O)CCCC3)Nc1ccc2c(c1)OCCO2 78.7%
Cc1cc(NC(=O)CSc2nc3sc4c(c3c(=O)[nH]2)CCC(C(C)(C)C)C4)no1 (stereo not drawn) 127%
Cc1nc2c(cc1NC(=O)Nc1ccccc1Cl)nc(C)n2Cc1ccccc1 60.5%
O=C(O)c1ccc(Nc2nc(-c3ccccc3)c3ccccc3n2)cc1 95.3%
CCC(C)NC(=O)C(C)C1CCN(C(=O)c2cc3ccccc3[nH]2)CC1 (stereo not drawn) 87.4%
Cn1c(=O)[nH]c(=O)c2c1nc(CN1CCN(c3cccc(Cl)c3)CC1)n2Cc1cccc(Cl)c1 122%
CCc1cccc(NC(=O)Cn2cnc3sc(-c4nc(-c5ccncc5)no4)c(C)c3c2=O)c1 83.2%
O=C(NC1CCCCC1)N1CCC(n2cnc3cccnc32)CC1 104%
COc1cc(Nc2c(C)c(C)nc3nc(Cc4cccc(F)c4)nn23)cc(OC)c1 107%
Cc1ccc(CNc2ncccc2-c2nc(-c3ccccc3C)no2)cc1 130%
COc1cc(Cl)ccc1Oc1ncnc2oc(C)c(C)c12 101%
COc1ccc(C(=O)NCc2cccnc2)cc1S(=O)(=O)N1CCOCC1 88.7%
c1csc(CSc2nnc3sc4ccccc4n23)c1 91.4%
O=C(CCN1C(=O)c2ccccc2S1(=O)=O)Nc1ncc([N+](=O)[O-])s1 66.2%
CCOC(=O)c1sc(-c2ccccc2)cc1NC(=O)CCS(=O)(=O)c1ccccc1 114%
O=C(Cc1csc2nc(-c3ccc(F)cc3)cn12)Nc1ccc(F)c(F)c1 91.1%
Cc1cc(NCc2ccccc2Cl)n2nc(Cc3cccc(F)c3)nc2n1 66.8%
CCOC(=O)c1ccc(NC(=O)CSc2nncn2-n2cccc2)cc1 71%
Cc1nnsc1C(=O)Nc1ccccc1C(F)(F)F 109%
CCN1CCN(CC(=O)Nc2ccc(C)cc2C)C(=O)C1=O 84.2%
Cc1ccc2nc(SC(C)c3ccccc3)nc(=O)n2c1 (stereo not drawn) 73.9%
CCOc1ccccc1NC(=O)C1CCN(c2ncnc3oc(C)c(C)c23)CC1 88.6%
O=C(CCCOc1ccc(Cl)cc1Cl)N/N=C1/C(=O)Nc2ccccc21 109%
CCCCC(=O)Nc1ncc(Cc2ccc(Cl)c(Cl)c2)s1 54%
O=C(Cc1ccccc1)NNC(=O)CC1SC(=O)NC1=O (stereo not drawn) 120%
O=C1c2ccncc2C(=O)N1CNc1ccccn1 95.8%
CCN(CC)CCN1C(=O)C(O)=C(C(=O)c2ccc(OC)cc2C)C1c1ccc(O)cc1 (stereo not drawn) 116%
CCc1ccccc1NC(=O)CSC1=C(C#N)C(c2ccc(C)cc2)C2=C(CCCC2=O)N1 (stereo not drawn) 105%
CC(C)Oc1ccc(C(=O)Nc2cccc3c2C(=O)c2ccccc2C3=O)cc1 84.9%
Cc1cc(C)c2ccc(NC(=O)c3c(-c4ccncc4)noc3C)nc2n1 83.9%
CCC(Cc1ccccc1)Nc1nn2nnnc2c2ccccc12 (stereo not drawn) 87%
O=C(Nc1ccc(F)cc1F)N1CCc2nc(N3CCCCC3)ncc2C1 50%
COc1cccc(C(=O)Nc2cc(=O)n(C)c(=O)n2C)c1 97.2%
CCc1nnc(NC(=O)c2nn(-c3ccc(C)cc3)c3c(=O)n(C)cnc23)s1 84.9%
O=C(CSc1ccc(-c2ccco2)nn1)Nc1cccc(F)c1 76.6%
Cc1cccc(-n2nnc(C(=O)Nc3ccccc3)c2C)c1 73%
COCCNc1nc(N)c([N+](=O)[O-])c(Nc2cccc(Cl)c2)n1 67.8%
Cc1cc(C)c2cc(C#N)c(NCCCNS(=O)(=O)c3ccccc3C(F)(F)F)nc2c1 122%
Cc1ccc(S(=O)(=O)n2nc(-c3ccccc3Cl)nc2N)cc1 85.4%
O=C(NC1CCCCC1)c1c(O)nc2sccn2c1=O 107%
Cn1c(=O)c2[nH]c(SCC(=O)c3ccc4c(c3)OCCO4)nc2n(C)c1=O 125%
Cc1cc(Nc2ccc(F)c(Cl)c2)n2ncnc2n1 105%
O=C(Cc1ccc(-c2ccccc2)cc1)Nc1nnc2n1CCS2 114%
O=C1CN(S(=O)(=O)c2ccc(Br)cc2)c2ccccc2N1 101%
CCOC(=O)c1sc(NC(=O)C2=COCCO2)cc1C 108%
COc1cccc(CNC(=O)c2cc3n(n2)CCCN(Cc2ccccc2)C3=O)c1OC 110%
Nc1cc(-c2ccco2)nn(CC(=O)N2CCOCC2)c1=O 123%
Cc1cccc2cc(CN(Cc3ccccc3)C(=O)c3ccccc3F)c(Cl)nc12 88%
COC(=O)c1sc2ccccc2c1NC(=O)c1ccc2ncsc2c1 60%
CCc1cc2c(N3CCC(C(=O)NCCCN4CCN(C)CC4)CC3)ncnc2s1 103%
Cc1cc(C)nc(SCCS(=O)(=O)c2nc3ccccc3s2)n1 2.4%
COc1ccccc1CNC(=O)c1nc(N2CCCC2)c2c(C)c(C)n(-c3cccc(Cl)c3)c2n1 85.9%
CCc1nnsc1C(=O)Nc1ncc([N+](=O)[O-])s1 92.8%
Cc1nc2c(ccc3nc(NC(=O)c4ccc(Br)s4)sc32)s1 106%
COc1cc(C2C(C(=O)c3cccs3)=C(O)C(=O)N2c2nncs2)ccc1O (stereo not drawn) 112%
Cc1csc(-c2csc(S(=O)(=O)N3CCC(C)CC3)c2)n1 30.4%
CCOC(=O)c1sc(NC(=O)C2CC2)cc1C 112%
CCOc1ccc(NC(=O)c2cccnc2-c2ccsc2)cc1 85.9%
Cc1ccc2cc(C#N)c(NCCNS(=O)(=O)c3cccc4ccccc34)nc2c1 44.9%
O=C(c1noc2ccc(S(=O)(=O)N3CCN(Cc4ccc5c(c4)OCO5)CC3)cc12)N1CCCC1 62.3%
Cc1nn(-c2nc3ccccc3[nH]2)c2c1C(c1ccccc1C(F)(F)F)CC(=O)N2 (stereo not drawn) 74.7%
Cc1cc(C)c2nc(NNC(=O)COc3ccccc3)sc2c1 80.7%
O=C(O)c1cc(-c2ccc(-c3ccc(F)cc3)o2)nc2ccccc12 103%
O=C(CC1Nc2ccccc2NC1=O)Nc1ccc2c(c1)OCO2 (stereo not drawn) 56.7%
O=C(O)CSc1ccc(S(=O)(=O)C(F)(F)F)cc1[N+](=O)[O-] 133%
Cc1c(C(=S)Nc2ccccc2)cnn1-c1ccc([N+](=O)[O-])cc1 78.4%
CC(=O)c1cccc(NC(=O)Nc2nc(SCc3c(F)cccc3Cl)ns2)c1 93.4%
CCOC(=O)c1c(C)oc2c1/C(=C/NCc1ccccn1)C(=O)c1ccccc1-2 36.2%
O=C(COc1ccccc1)Nc1nc2ccccc2s1 93.9%
COCCCNC(=O)CN1CCN(c2ncc(NC(=O)c3ccc(Cl)cc3)cc2C(=O)O)CC1 105%
CC(=O)c1ccc(NC(=O)c2ccc(S(=O)(=O)N3CCC(C)CC3)cc2)cc1 75.7%
Cc1cc(C)cc(-n2nc3c(c2NC(=O)/C=C\c2ccc4c(c2)OCO4)CSC3)c1 83.9%
O=C(O)c1cccnc1SC1CC(=O)N(c2ccc(Cl)cc2[N+](=O)[O-])C1=O (stereo not drawn) 94.4%
Fc1ccc(-c2ccc(/C=N/n3cnnc3)o2)cc1 97.6%
O=C(NCc1ccc(F)cc1)C1CCN(C(=O)Nc2cccc(Cl)c2)CC1 79.9%
CC(=O)Nc1cccc(NC(=O)C(=O)NCCSc2nc(-c3ccccc3)c[nH]2)c1 109%

Pulled one by one from the entries so far, 2 records:
Intracellular bacterial bioluminescence, inactive:
O=C(Cn1ncn2nc3c(c2c1=O)CCCC3)Nc1ccc2c(c1)OCCO2 78.7%
O=C(CCCOc1ccc(Cl)cc1Cl)N/N=C1/C(=O)Nc2ccccc21 109%

As a working copy, 4 of the compounds above.
Intracellular bacterial bioluminescence, inactive:
CC(C)Oc1ccc(C(=O)Nc2cccc3c2C(=O)c2ccccc2C3=O)cc1 84.9%
Cc1cc(C)c2ccc(NC(=O)c3c(-c4ccncc4)noc3C)nc2n1 83.9%
CCC(Cc1ccccc1)Nc1nn2nnnc2c2ccccc12 (stereo not drawn) 87%
O=C(Nc1ccc(F)cc1F)N1CCc2nc(N3CCCCC3)ncc2C1 50%
